Results: patent publication US4209439A, “Stabilization of vinyl resins” (priority 1977, dated 1980)

Assays:
[1] = static thermostability of polyvinyl chloride, oven at 210° C.; design: key: The symbol "B" indicates "burnt"; the index "+" signifies that the colour is disposed half-way between the lower unit and the upper half-unit; the index "-" signifies that the colour is between the lower half-unit and the upper unit; >2 means that it is between 2 and 2^+
[2] = static thermostability of polyvinyl chloride, oven at […] C.; design: key: The symbol "B" indicates "burnt"; the index "+" signifies that the colour is disposed half-way between the lower unit and the upper half-unit; the index "-" signifies that the colour is between the lower half-unit and the upper unit; >2 means that it is between 2 and 2^+
[3] = photostabilising, flexible vinyl chloride-vinyl acetate copolymer (Example 6); conditions: 0.3 part
[4] = equimolecular, 1.55×1^-3 mole, 0 min
[5] = equimolecular, 1.55×1^-3 mole, 6 min
[6] = equimolecular, 1.55×1^-3 mole, 12 min
[7] = equimolecular, 1.55×1^-3 mole, 18 min
[8] = equimolecular, 1.55×1^-3 mole, 24 min
[9] = equimolecular, 1.55×1^-3 mole, 27 min
[10] = equimolecular, 1.55×1^-3 mole, 30 min

For `CCOC(=O)C1=C(C)NC(C)=C(C(=O)OCC)C1` [L.28501, 2,6-Dimethyl-3,5-dicarboethoxy-1,4-dihydropyridine], the colour ([1]; Ex. 10, 0.3 part, 0 min) was 1 Gardner, the colour ([1]; Ex. 10, 0.3 part, 3 min) was 1 Gardner and the colour ([1]; Ex. 10, 0.3 part, 6 min) was 2 Gardner. It also gave a colour ([1]; Ex. 10, 0.3 part, 9 min) of 2 Gardner, a colour ([1]; Ex. 10, 0.3 part, 12 min) of 4 Gardner and a colour ([1]; Ex. 10, 0.3 part, 15 min) of 8.5 Gardner. The colour ([1]; Ex. 10, 0.3 part, 18 min) was “B”, the colour ([2]; 0.3 part, 0 min) was 1 Gardner and the colour ([2]; 0.3 part, 6 min) was 1 Gardner. It also gave a colour ([2]; 0.3 part, 12 min) of 2 Gardner, a colour ([2]; 0.3 part, 18 min) of 8 Gardner and a colour ([2]; 0.3 part, 24 min) of 11 Gardner. For the same compound, the colour ([2]; 0.3 part, 27 min) was 13 Gardner, the colour ([2]; 0.3 part, 30 min) was 13 Gardner and the colour ([2]; 0.3 part, 33 min) was 18 Gardner. The colour ([2]; 0.3 part, 36 min) was “B”, the colour [2, 4] was 1 Gardner and the colour [2, 5] was 1 Gardner. The colour [2, 6] was 1 Gardner, the colour [2, 7] was 5 Gardner and the colour [2, 8] was 10 Gardner. For the same compound, the colour [2, 9] was 11 Gardner and the colour [2, 10] was “B”.
`CC1=C(C(=O)Oc2ccc(C)cc2)CC(C(=O)Oc2ccc(C)cc2)=C(C)N1` [L.28538] showed a colour ([1]; Ex. 10, 0.3 part, 0 min) of 1 Gardner, a colour ([1]; Ex. 10, 0.3 part, 3 min) of 1 Gardner and a colour ([1]; Ex. 10, 0.3 part, 6 min) of 3 Gardner. It also gave a colour ([1]; Ex. 10, 0.3 part, 9 min) of 3 Gardner, a colour ([1]; Ex. 10, 0.3 part, 12 min) of 4 Gardner and a colour ([1]; Ex. 10, 0.3 part, 15 min) of 14 Gardner. The colour ([1]; Ex. 10, 0.3 part, 18 min) was “B”, the colour ([2]; 0.3 part, 0 min) was 1 Gardner and the colour ([2]; 0.3 part, 6 min) was 1 Gardner. It also gave a colour ([2]; 0.3 part, 12 min) of 3 Gardner, a colour ([2]; 0.3 part, 18 min) of 10 Gardner and a colour ([2]; 0.3 part, 24 min) of 13 Gardner. For the same compound, the colour ([2]; 0.3 part, 27 min) was 13 Gardner, the colour ([2]; 0.3 part, 30 min) was 14 Gardner and the colour ([2]; 0.3 part, 33 min) was 17 Gardner. For the same compound, the colour ([2]; 0.3 part, 36 min) was 17 Gardner, the colour ([2]; 0.3 part, 39 min) was “B” and the colour [2, 4] was 1 Gardner. It also gave a colour [2, 5] of 1 Gardner, a colour [2, 6] of 2 Gardner and a colour [2, 7] of 7 Gardner. It also gave a colour [2, 8] of 7 Gardner, a colour [2, 9] of 9 Gardner and a colour [2, 10] of 10 Gardner. For the same compound, the colour ([2]; equimolecular, 1.55×1^-3 mole, 33 min) was 17 Gardner and the colour ([2]; equimolecular, 1.55×1^-3 mole, 36 min) was “B”.
In the case of `CCCCCCCCCCCCOC(=O)C1=C(C)NC(C)=C(C(=O)OCCCCCCCCCCCC)C1` [L.28507, 2,6-Dimethyl-3,5-dicarbododecyloxy-1,4-dihydropyridine], the Coloration ([3]; Test B, after 24 hours) is reported as 1 degrees Gardner, the Coloration ([3]; Test B, time 0) is reported as 1 degrees Gardner and the colour ([1]; 0.1 p.c.r., 0 min) is reported as 2 Gardner. The colour ([1]; 0.1 p.c.r., 2 min) was 2 Gardner, the colour ([1]; 0.1 p.c.r., 4 min) was 2 Gardner and the colour ([1]; 0.1 p.c.r., 6 min) was 2 Gardner. The colour ([1]; 0.1 p.c.r., 8 min) was 3 Gardner, the colour ([1]; 0.1 p.c.r., 10 min) was 4 Gardner and the colour ([1]; 0.1 p.c.r., 12 min) was 10.5 Gardner. The colour ([1]; 0.2 p.c.r., 0 min) was 1 Gardner, the colour ([1]; 0.2 p.c.r., 2 min) was 1 Gardner and the colour ([1]; 0.2 p.c.r., 4 min) was 1 Gardner. The colour ([1]; 0.2 p.c.r., 6 min) was 2 Gardner, the colour ([1]; 0.2 p.c.r., 8 min) was 2 Gardner and the colour ([1]; 0.2 p.c.r., 10 min) was 3 Gardner. It also gave a colour ([1]; 0.2 p.c.r., 12 min) of 7.5 Gardner, a colour ([1]; Ex. 10, 0.3 part, 0 min) of 1 Gardner and a colour ([1]; Ex. 10, 0.3 part, 3 min) of 1 Gardner. For the same compound, the colour ([1]; Ex. 10, 0.3 part, 6 min) was 2 Gardner, the colour ([1]; Ex. 10, 0.3 part, 9 min) was 6 Gardner and the colour ([1]; Ex. 10, 0.3 part, 12 min) was 8 Gardner. The colour ([1]; Ex. 10, 0.3 part, 15 min) was 19 Gardner, the colour ([1]; Ex. 10, 0.3 part, 18 min) was “B” and the colour ([1]; x = 0.1 to 0.3 p.c.r., 0 min) was 1 Gardner. It also gave a colour ([1]; x = 0.1 to 0.3 p.c.r., 3 min) of 1 Gardner, a colour ([1]; x = 0.1 to 0.3 p.c.r., 6 min) of 2 Gardner and a colour ([1]; x = 0.1 to 0.3 p.c.r., 9 min) of 2 Gardner. The colour ([1]; x = 0.1 to 0.3 p.c.r., 12 min) was 3 Gardner, the colour ([2]; 0.3 part, 0 min) was 1 Gardner and the colour ([2]; 0.3 part, 6 min) was 2 Gardner. For the same compound, the colour ([2]; 0.3 part, 12 min) was 2 Gardner, the colour ([2]; 0.3 part, 18 min) was 7 Gardner and the colour ([2]; 0.3 part, 24 min) was 11 Gardner. The colour ([2]; 0.3 part, 27 min) was 13 Gardner, the colour ([2]; 0.3 part, 30 min) was 14 Gardner and the colour ([2]; 0.3 part, 33 min) was 15 Gardner. The colour ([2]; 0.3 part, 36 min) was 15 Gardner, the colour ([2]; 0.3 part, 39 min) was 18 Gardner and the colour ([2]; 0.3 part, 42 min) was “B”.
`CCCCOC(=O)C1=C(C)NC(C)=C(C(=O)OCCCC)C1` [L.28552, 2,6-Dimethyl-3,5-dicarbobutoxy-1,4-dihydropyridine] gave a colour ([1]; Ex. 10, 0.3 part, 0 min) of 1 Gardner, a colour ([1]; Ex. 10, 0.3 part, 3 min) of 1 Gardner and a colour ([1]; Ex. 10, 0.3 part, 6 min) of 2 Gardner. The colour ([1]; Ex. 10, 0.3 part, 9 min) was 4 Gardner, the colour ([1]; Ex. 10, 0.3 part, 12 min) was 11 Gardner and the colour ([1]; Ex. 10, 0.3 part, 15 min) was 12 Gardner. For the same compound, the colour ([1]; Ex. 10, 0.3 part, 18 min) was “B”.
For `CCCCCCCCCCCCCCCCCCOC(=O)C1=C(C)NC(C)=C(C(=O)OCCCCCCCCCCCCCCCCCC)C1` [L.28599, 2,6-Dimethyl-3,5-dicarbooctadecyloxy-1,4-dihydropyridine], the Coloration ([3]; Test A, after 24 hours) was 1 degrees Gardner, the Coloration ([3]; Test A, time 0) was 1 degrees Gardner and the colour ([1]; 0.2 p.c.r., 0 min) was 1 Gardner. For the same compound, the colour ([1]; 0.2 p.c.r., 2 min) was less than 2 Gardner, the colour ([1]; 0.2 p.c.r., 6 min) was 2 Gardner and the colour ([1]; 0.2 p.c.r., 8 min) was 3 Gardner. It also gave a colour ([1]; 0.2 p.c.r., 10 min) of 3 Gardner, a colour ([1]; 0.2 p.c.r., 12 min) of 10.5 Gardner and a colour ([1]; 0.2 p.c.r., 14 min) of 14 Gardner. The colour ([1]; 0.2 p.c.r., time printed 1 min) was less than 2 Gardner, the colour ([1]; x = 0.1 to 0.3 p.c.r., 0 min) was 1 Gardner and the colour ([1]; x = 0.1 to 0.3 p.c.r., 3 min) was 1 Gardner. For the same compound, the colour ([1]; x = 0.1 to 0.3 p.c.r., 6 min) was 1 Gardner, the colour ([1]; x = 0.1 to 0.3 p.c.r., 9 min) was 2 Gardner and the colour ([1]; x = 0.1 to 0.3 p.c.r., 12 min) was 4 Gardner. The colour ([1]; x = 0.1 to 0.3 p.c.r., 15 min) was 13 Gardner.
Work on `CCCOC(=O)C1=C(C)NC(C)=C(C(=O)OCCC)C1` [L.28509] yielded a colour ([1]; Ex. 10, 0.3 part, 0 min) of 1 Gardner, a colour ([1]; Ex. 10, 0.3 part, 3 min) of 1 Gardner and a colour ([1]; Ex. 10, 0.3 part, 6 min) of 2 Gardner. It also gave a colour ([1]; Ex. 10, 0.3 part, 9 min) of 4 Gardner, a colour ([1]; Ex. 10, 0.3 part, 12 min) of 4 Gardner and a colour ([1]; Ex. 10, 0.3 part, 15 min) of 17 Gardner. The colour ([1]; Ex. 10, 0.3 part, 18 min) was “B”, the colour ([2]; 0.3 part, 0 min) was 1 Gardner and the colour ([2]; 0.3 part, 6 min) was 1 Gardner. It also gave a colour ([2]; 0.3 part, 12 min) of 2 Gardner, a colour ([2]; 0.3 part, 18 min) of 3 Gardner and a colour ([2]; 0.3 part, 24 min) of 5 Gardner. The colour ([2]; 0.3 part, 27 min) was 9 Gardner, the colour ([2]; 0.3 part, 30 min) was 9 Gardner and the colour ([2]; 0.3 part, 33 min) was 11 Gardner. It also gave a colour ([2]; 0.3 part, 36 min) of 13 Gardner, a colour ([2]; 0.3 part, 39 min) of 14 Gardner and a colour ([2]; 0.3 part, 42 min) of 15 Gardner.
